# PubChem BioAssay AID1159584, Peter MacCallum Cancer Centre, 2016
# Purpose: 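Knock-downs that harm CDH1-null cells more than parental MCF10A cells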 (primary screen)
# System: human MCF10A breast epithelial cells, parental and CDH1-null
# Reagent: siRNA against human genes
# Measurement: 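ATP luminescence (CellTiter-Glo) viability per line relative to mean mock wells over all plates, and the ratio of CDH1-null to parental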
# Direction: CDH1-null / parental viability ratio: higher = CDH1-null cells survive relatively better than parental; CDH1-null viability vs mock: higher = more viable CDH1-null cells
# This is a random part of about 18,000 reagents. Further read-outs or replicates are left out here. Not given: the amount of reagent, the time to read-out.
Target gene,CDH1-null / parental viability ratio,CDH1-null viability vs mock (fraction of mock)
DKKL1,1.06,0.89
OSBPL1A,1.16,1.02
PLA2G2D,1.36,1.36
TRAPPC13,0.95,0.92
LOC284009,1.09,0.5
URI1,0.7,0.56
GOLGA4,1.02,0.98
SH3YL1,0.88,0.74
ZNF875,1.22,0.9
RIMS3,0.8,0.49
OR5T3,1.14,0.75
FAABTP,1.13,0.79
MOK,0.91,0.82
SGSM3,1.23,1.08
TYRO3,0.89,0.66
UBXN2B,1.08,0.98
PALM,0.68,0.56
TPRG1L,1.04,0.56
HINFP,0.91,0.53
MSS51,1.34,1.46
CMTM5,1.17,0.89
RARRES1,1,0.74
PCOLCE2,1.03,0.66
CPNE9,1,1
RANGAP1,1.01,0.92
SNPH,1.54,1.11
TAX1BP3,1.38,1.02
CFHR3,0.9,0.79
RHOXF2,1.26,0.63
GPR137B,0.97,0.9
ANXA10,0.82,0.61
TRMT10A,1.05,0.46
ACD,1.26,0.53
SLIT2,1.06,0.7
RAB39B,0.98,0.9
GSX2,1.27,0.76
RSRC1,1.09,0.38
STX12,0.99,0.87
MAP3K7,0.82,0.61
IMPG1,0.63,0.44
FMO5,0.96,0.92
DPP9,1.29,1.01
BIN1,1.62,0.26
CPPED1,0.9,0.77
CD320,0.99,0.75
SP2,0.88,1.02
C18orf54,0.85,0.88
FYTTD1,0.85,0.7
MKX,1.2,0.84
AHR,1.38,1.55
PRRG2,0.92,0.68
VCPKMT,1.13,0.88
SALL4,1.21,1.15

Next part, starting with the last 6 of the part before.
Target gene,CDH1-null / parental viability ratio,CDH1-null viability vs mock (fraction of mock)
FYTTD1,0.85,0.7
MKX,1.2,0.84
AHR,1.38,1.55
PRRG2,0.92,0.68
VCPKMT,1.13,0.88
SALL4,1.21,1.15
TJP2,0.87,0.82
SLC35D4,0.94,0.49
MDN1,0.97,0.64
UBAP1,1.09,0.94
UBE2F,1.07,0.58
PPAN-P2RY11,0.94,0.58
DRGX,1,0.62
CENPE,1.04,0.76
APBB1IP,0.92,0.46
EQTN,0.91,0.58
PPP1R16A,1.2,1.12
MTA1,0.97,0.85
APOBEC3B,1.03,0.94
CATSPER3,1.22,0.88
AKT2,0.92,0.74
PAPPA,1.07,0.9
NFRKB,1.15,0.94
THRB,1,0.64
CRLF1,0.94,0.64
BCO1,1.02,0.98
SARDH,1.14,0.96
FBXW5,0.87,0.58
CUL9,1.02,0.96
POLR3D,1.02,0.9
SLC35E2A,0.77,0.49
FAM209B,1.04,0.8
DCST2,1.15,0.85
LHPP,1.26,0.83
C1QL4,0.76,0.78
LBX2,1.16,1.23
UPF2,0.98,0.86
OR2A5,1.12,0.92
KLK2,1.17,0.94
WDHD1,0.85,0.33
